In patent US20210246203A1:
These are yes or no findings as the source states them, for the method shown. Some entries that bind do so weakly or less than the wild type.

What was measured:
[1] = target: T1, Astrotactin (ASTN1) recombinant protein (UniProt O14525); test: binding assay with recombinant ASTN1 (FIG. 2)
T1 sequence (looked up): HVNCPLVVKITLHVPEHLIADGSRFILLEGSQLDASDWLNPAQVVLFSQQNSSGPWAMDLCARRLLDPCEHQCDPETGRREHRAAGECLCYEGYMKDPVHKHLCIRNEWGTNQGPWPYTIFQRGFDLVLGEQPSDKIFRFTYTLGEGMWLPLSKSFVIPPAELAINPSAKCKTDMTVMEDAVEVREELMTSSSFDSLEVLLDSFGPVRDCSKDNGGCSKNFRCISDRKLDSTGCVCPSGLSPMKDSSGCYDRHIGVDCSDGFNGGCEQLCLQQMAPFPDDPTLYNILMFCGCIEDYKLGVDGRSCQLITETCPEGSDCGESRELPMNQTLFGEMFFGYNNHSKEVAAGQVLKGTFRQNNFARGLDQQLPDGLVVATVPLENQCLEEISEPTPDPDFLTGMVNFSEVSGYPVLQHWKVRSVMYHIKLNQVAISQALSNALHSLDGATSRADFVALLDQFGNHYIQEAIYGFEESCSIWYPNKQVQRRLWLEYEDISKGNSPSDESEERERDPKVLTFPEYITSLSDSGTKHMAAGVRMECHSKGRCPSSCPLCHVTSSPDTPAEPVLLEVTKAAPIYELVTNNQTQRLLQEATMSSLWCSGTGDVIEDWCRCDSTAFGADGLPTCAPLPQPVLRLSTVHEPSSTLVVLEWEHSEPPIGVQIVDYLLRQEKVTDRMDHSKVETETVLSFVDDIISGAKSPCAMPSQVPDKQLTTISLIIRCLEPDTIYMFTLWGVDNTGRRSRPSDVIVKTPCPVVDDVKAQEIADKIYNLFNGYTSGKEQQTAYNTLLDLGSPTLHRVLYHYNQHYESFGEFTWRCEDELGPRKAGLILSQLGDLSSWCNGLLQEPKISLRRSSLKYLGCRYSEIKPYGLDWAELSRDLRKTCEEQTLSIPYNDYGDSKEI

[2] = target: T1, Astrotactin (ASTN1) recombinant protein; test: ELISA on plate-coated ASTN1, OD 450 nm

- binding [1]: binds
- binding [2]: binds
B1: scFv3 antibody (scFv, V domains shown)
VH: EVQLVESGGGLVQPGGSLRLSCSVTGEPITSGFWDWVRQATGKGLEFVGMIWGADGNTDPDSVKGRFTISRENTKNSLYLQMNSLRAGDTAVYYCARDFYDYDVFYYAMDYWGQGTTVTVSS
VL: DIQLTQSPSTLSASVGDRVTITCRASQSVGNNKLAWYQQKPGKAPKLLIYKASNLASGVPSRFSGSGSGTEFTLTISSLQPDDFATYYCQQHDYPYTFGQGTKVEIK
